According to the supplement of paper PMC10849652:
Some of the results follow.

By UniProt entry, the sequences of proteins in these tests, tags left out. Where a name states a change or a piece, a line headed by the entry shows the natural chain unless it says otherwise.
UniProt Q9BQT9: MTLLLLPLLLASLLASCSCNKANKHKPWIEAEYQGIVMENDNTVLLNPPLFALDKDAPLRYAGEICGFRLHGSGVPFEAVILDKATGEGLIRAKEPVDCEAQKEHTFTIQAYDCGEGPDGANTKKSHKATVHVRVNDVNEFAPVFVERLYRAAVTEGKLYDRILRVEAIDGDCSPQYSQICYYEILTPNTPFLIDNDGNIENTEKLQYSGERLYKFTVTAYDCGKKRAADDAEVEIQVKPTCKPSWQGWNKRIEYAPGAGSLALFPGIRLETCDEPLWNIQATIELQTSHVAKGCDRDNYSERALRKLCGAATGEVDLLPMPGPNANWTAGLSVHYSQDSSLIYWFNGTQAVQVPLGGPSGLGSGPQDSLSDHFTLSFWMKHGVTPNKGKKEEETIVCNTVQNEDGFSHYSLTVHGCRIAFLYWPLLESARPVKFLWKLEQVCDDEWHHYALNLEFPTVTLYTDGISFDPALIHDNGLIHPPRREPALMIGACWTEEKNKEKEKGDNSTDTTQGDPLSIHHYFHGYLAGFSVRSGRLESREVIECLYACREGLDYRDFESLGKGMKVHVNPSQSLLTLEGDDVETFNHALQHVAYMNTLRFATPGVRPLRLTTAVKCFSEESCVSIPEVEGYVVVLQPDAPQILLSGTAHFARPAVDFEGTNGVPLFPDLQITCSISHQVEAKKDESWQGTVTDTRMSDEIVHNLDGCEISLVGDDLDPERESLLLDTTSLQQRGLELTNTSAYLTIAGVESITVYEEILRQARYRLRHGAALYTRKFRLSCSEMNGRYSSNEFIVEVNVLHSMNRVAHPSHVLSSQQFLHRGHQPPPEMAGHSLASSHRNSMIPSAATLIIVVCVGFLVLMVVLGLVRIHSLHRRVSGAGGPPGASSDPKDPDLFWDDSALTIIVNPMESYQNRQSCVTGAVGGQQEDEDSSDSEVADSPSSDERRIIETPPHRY
UniProt Q9NZ45: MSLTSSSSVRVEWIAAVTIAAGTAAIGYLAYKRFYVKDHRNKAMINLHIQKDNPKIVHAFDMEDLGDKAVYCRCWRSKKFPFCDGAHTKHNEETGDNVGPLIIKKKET
UniProt P09496: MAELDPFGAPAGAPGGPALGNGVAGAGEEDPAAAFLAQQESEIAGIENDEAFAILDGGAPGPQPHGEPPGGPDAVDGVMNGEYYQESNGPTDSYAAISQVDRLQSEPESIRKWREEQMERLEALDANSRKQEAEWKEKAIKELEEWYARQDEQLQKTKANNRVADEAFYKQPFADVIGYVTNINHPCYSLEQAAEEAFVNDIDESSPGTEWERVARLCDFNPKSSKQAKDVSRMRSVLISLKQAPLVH
UniProt Q9H6Q4: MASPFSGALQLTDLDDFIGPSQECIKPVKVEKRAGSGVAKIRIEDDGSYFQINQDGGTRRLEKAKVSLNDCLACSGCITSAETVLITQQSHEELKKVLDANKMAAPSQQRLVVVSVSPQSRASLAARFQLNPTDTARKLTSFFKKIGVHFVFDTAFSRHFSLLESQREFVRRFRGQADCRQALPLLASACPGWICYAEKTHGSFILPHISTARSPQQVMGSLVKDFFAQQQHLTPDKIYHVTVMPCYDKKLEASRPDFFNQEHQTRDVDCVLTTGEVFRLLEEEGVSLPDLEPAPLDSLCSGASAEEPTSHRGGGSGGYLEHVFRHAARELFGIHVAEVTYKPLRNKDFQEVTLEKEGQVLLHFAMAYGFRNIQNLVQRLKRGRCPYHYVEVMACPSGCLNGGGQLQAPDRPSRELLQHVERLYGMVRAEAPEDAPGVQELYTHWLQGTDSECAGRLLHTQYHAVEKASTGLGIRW
UniProt Q2KHT3: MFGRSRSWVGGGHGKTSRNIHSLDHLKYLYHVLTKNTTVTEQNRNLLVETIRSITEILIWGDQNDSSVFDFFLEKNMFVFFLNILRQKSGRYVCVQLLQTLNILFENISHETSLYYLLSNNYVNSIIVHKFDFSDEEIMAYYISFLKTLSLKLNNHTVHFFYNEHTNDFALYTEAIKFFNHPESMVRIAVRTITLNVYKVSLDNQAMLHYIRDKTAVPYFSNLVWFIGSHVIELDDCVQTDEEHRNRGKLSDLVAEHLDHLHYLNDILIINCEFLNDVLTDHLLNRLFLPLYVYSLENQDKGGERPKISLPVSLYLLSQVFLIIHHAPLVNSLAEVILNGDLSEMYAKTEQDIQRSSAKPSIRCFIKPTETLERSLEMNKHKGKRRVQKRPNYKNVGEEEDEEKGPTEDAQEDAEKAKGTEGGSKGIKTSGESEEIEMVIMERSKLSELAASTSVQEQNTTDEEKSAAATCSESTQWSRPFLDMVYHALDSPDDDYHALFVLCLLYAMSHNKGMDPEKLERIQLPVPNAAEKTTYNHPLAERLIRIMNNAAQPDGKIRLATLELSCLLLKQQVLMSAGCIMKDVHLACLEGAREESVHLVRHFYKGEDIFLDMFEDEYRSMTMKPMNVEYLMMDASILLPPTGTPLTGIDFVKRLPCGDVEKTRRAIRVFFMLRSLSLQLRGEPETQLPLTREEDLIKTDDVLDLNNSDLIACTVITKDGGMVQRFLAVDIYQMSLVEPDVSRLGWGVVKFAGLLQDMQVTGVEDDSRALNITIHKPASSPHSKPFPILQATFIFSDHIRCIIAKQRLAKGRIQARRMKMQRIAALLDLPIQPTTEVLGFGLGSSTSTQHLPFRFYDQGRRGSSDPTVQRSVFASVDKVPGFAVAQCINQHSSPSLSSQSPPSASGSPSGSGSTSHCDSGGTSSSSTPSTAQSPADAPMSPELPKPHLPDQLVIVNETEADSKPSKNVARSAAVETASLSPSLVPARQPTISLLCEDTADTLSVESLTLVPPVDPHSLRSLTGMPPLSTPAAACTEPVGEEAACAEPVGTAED
UniProt Q7Z460: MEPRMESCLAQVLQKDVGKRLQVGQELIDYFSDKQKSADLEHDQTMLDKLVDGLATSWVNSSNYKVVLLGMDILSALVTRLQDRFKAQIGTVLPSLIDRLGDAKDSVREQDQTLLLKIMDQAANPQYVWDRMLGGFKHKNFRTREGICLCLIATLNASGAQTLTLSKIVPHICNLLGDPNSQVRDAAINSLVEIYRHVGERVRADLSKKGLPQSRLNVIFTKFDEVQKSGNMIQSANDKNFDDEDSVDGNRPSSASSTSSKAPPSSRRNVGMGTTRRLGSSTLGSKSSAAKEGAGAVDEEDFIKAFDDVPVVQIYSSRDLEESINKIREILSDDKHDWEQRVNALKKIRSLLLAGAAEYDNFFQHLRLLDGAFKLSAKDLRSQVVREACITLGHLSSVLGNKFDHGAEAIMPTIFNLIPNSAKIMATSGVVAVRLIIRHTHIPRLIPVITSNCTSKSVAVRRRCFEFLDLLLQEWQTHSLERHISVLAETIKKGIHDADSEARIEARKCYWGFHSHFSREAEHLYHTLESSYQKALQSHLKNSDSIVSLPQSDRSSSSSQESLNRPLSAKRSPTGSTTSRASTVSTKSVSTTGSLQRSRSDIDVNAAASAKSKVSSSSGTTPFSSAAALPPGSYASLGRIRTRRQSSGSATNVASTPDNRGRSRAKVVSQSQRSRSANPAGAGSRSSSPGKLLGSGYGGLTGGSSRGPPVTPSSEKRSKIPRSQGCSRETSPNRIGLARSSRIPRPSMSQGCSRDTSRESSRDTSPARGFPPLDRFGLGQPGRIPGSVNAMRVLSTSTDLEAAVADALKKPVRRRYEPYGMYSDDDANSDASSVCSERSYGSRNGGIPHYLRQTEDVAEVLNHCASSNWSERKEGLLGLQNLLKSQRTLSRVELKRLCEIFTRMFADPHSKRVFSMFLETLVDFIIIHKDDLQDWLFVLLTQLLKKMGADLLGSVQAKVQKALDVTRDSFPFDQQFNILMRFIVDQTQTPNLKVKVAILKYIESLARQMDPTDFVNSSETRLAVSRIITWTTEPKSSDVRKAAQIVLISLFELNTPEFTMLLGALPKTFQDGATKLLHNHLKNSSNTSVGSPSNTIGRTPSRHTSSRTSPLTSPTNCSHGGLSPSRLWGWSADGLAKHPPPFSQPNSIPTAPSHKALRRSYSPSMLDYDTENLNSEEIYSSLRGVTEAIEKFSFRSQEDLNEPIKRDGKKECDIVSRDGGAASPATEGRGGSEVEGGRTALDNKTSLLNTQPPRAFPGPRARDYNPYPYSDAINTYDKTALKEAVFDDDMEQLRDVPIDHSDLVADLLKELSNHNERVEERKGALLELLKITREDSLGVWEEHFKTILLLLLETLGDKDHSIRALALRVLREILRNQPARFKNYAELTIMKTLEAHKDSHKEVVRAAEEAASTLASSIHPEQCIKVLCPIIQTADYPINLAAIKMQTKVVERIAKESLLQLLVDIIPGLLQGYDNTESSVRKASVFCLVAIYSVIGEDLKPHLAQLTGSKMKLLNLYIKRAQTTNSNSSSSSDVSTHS
UniProt Q9Y3E7, whole entry, looked up: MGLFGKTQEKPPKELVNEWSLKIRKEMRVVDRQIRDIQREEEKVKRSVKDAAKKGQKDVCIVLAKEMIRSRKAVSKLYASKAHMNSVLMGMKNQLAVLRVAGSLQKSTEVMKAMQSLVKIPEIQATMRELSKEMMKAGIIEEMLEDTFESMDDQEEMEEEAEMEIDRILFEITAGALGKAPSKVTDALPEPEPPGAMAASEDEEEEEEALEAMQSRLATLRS
UniProt Q8TDI0: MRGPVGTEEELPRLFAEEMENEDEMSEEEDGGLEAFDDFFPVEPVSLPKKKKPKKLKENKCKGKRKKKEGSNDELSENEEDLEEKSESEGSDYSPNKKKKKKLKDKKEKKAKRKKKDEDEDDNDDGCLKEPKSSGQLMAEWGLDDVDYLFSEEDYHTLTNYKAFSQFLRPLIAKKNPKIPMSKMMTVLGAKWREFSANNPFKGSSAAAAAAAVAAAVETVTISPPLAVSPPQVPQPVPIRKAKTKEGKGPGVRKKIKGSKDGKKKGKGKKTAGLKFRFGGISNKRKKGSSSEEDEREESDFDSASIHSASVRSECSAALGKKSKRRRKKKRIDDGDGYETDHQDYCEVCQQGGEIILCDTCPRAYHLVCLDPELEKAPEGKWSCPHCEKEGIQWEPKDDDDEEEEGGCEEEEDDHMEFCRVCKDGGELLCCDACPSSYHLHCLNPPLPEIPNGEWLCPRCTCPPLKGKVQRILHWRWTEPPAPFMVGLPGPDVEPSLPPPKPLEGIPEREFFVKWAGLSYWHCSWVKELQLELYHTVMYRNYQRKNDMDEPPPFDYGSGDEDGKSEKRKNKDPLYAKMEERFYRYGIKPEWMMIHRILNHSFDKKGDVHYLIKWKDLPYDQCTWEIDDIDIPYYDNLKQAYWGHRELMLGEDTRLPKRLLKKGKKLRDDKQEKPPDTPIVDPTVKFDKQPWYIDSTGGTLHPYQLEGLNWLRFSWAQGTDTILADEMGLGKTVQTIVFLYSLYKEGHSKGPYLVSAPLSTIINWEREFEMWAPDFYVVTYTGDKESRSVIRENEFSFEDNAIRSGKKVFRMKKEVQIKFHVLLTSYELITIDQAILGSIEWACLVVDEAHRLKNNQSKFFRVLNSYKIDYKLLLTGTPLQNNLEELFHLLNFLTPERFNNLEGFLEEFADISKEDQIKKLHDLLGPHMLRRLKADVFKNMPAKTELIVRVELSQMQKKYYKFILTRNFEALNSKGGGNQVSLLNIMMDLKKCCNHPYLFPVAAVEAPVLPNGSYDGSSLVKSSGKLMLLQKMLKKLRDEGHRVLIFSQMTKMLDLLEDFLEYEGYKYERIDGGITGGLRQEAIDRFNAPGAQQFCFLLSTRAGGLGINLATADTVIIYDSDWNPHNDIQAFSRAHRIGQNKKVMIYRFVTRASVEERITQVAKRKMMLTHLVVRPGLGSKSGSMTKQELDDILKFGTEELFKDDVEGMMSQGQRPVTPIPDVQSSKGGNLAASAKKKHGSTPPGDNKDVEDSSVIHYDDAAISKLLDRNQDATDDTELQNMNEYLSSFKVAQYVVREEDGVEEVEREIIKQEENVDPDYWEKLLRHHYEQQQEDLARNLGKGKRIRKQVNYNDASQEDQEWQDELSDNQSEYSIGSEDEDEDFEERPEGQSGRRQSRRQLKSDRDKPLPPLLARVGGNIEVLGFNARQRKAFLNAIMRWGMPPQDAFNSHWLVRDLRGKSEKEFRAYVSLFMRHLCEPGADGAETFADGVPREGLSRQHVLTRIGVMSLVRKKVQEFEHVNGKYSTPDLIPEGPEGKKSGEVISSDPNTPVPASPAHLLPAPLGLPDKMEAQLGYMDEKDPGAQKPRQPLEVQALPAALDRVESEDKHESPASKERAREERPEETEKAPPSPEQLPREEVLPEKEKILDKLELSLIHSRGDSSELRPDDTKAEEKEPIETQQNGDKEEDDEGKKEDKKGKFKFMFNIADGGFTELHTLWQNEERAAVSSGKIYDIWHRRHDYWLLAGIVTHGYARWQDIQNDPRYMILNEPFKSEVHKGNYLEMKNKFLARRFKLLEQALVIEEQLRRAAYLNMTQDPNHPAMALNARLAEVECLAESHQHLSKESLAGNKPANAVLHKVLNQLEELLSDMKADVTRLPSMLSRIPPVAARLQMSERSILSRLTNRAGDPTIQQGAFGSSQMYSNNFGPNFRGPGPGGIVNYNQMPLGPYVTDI

Columns and labels:
Experiment in all cases: log2 fold change, soluble protein after heating vs DMSO (PISA); higher = thermal stabilisation; K562 lysate, 10 uM; active = over 0.2 and 3.5 SD of the protein, either way, in both replicates (recomputed)
[1] = compound: Cc1cn(-c2cc(NC(=O)c3ccc(C)c(Nc4nccc(-c5cccnc5)n4)c3)cc(C(F)(F)F)c2)cn1 [nilotinib]
Outline: (§1)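 To prepare the extract, K562 pellets were dounce-homogenised in PBS pH 7.4 with 1 mM MgCl2, giving crude material at 1 mg/mL protein. This was treated with 10 μM compound for 30 min, then heated in aliquots for 3 min over 48°C-58°C before pooling and addition of NP-40 to 0.5% at 4°C. Centrifugation at 21,000xg for 90 min left soluble protein in the supernatant, which TMTpro 16plex LC-MS/MS quantified with equalised channel sums. Results are log-two fold changes in thermal stability compared with solvent controls, from duplicates.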

[2] = compound: Cc1nc(Nc2n[nH]c3c2CN(C(=O)N[C@H](CN(C)C)c2ccccc2)C3(C)C)c2sccc2n1
Outline: as §1

[3] = compound: Cc1nc(Nc2ncc(C(=O)Nc3c(C)cccc3Cl)s2)cc(N2CCN(CCO)CC2)n1 [dasatinib]
Outline: as §1

[4] = compound: Cc1ncc(-c2ccnc(Nc3ccc(S(C)(=O)=O)cc3)n2)n1C(C)C
Outline: as §1

[5] = compound: Cn1cc(-c2ccc3c(c2)CCN3C(=O)Cc2cccc(C(F)(F)F)c2)c2c(N)ncnc21
Outline: as §1

[6] = compound: Cn1cc(CNCC2CCN(c3ncc(C(=O)NO)cn3)CC2)c2ccccc21 [quisinostat]
Outline: as §1

[7] = compound: Cn1cncc1[C@@](N)(c1ccc(Cl)cc1)c1ccc2c(c1)c(-c1cccc(Cl)c1)cc(=O)n2C [tipifarnib]
Outline: as §1

[8] = compound: NC(=O)Nc1cc(-c2cccc(F)c2)sc1C(=O)N[C@H]1CCCNC1
Outline: as §1

[9] = compound: NC(=O)c1cnc(N[C@@H]2CCCC[C@@H]2N)nc1Nc1cccc(-n2nccn2)c1
Outline: as §1

[10] = compound: NC1(c2ccc(-c3nc4ccn5c(=O)[nH]nc5c4cc3-c3ccccc3)cc2)CCC1
Outline: as §1

Measured: log2 fold change

CLYBL (UniProt Q8N0X4)
inactive: [1] -0.16 | [2] 0.008 | [3] -0.04 | [4] 0.048 | [5] -0.167 | [6] 0.179 | [7] 0.332 | [8] -0.105 | [9] -0.027

CLSTN3 isoform 2 (UniProt Q9BQT9)
inactive: [1] -0.027 | [2] -0.019 | [3] -0.053 | [4] -0.091 | [5] 0.007 | [6] 0.233 | [7] -0.019 | [8] -0.034 | [9] 0.022 | [10] -0.03

CIP2A (UniProt Q8TCG1)
inactive: [1] -0.006 | [2] 0.02 | [3] -0.107 | [4] 0.024 | [5] 0.054 | [6] -0.123 | [7] 0.01 | [8] 0.019 | [9] 0.032 | [10] -0.014

CISD1 (UniProt Q9NZ45)
inactive: [1] 0.014 | [2] -0.022 | [3] -0.048 | [4] 0.02 | [5] -0.021 | [6] 0.031 | [7] -0.009 | [8] -0.01 | [9] -0.007 | [10] 0.005

CLTA isoform 2 (UniProt P09496)
inactive: [1] 0.066 | [2] -0.033 | [3] 0.024 | [4] -0.028 | [5] 0.006 | [6] 0.035 | [7] 0.063 | [8] -0.004 | [9] -0.088 | [10] -0.086

CHMP1B (UniProt Q7LBR1)
inactive: [1] -0.102 | [2] -0.004 | [3] 0.005 | [4] -0.028 | [5] 0 | [6] -0.005 | [7] -0.011 | [8] -0.015 | [9] 0.048 | [10] 0.007

CHD1 (UniProt O14646)
inactive: [1] -0.038 | [2] 0.08 | [3] 0.161 | [4] -0.054 | [5] 0.135 | [6] -0.13 | [7] -0.003 | [8] 0.034 | [9] -0.155 | [10] -0.033

CLASRP (UniProt Q8N2M8)
inactive: [1] -0.008 | [2] -0.099 | [3] -0.025 | [4] -0.082 | [5] -0.038 | [6] -0.057 | [7] 0.004 | [8] -0.039 | [9] 0 | [10] 0.015

CLSPN (UniProt Q9HAW4)
inactive: [1] 0.038 | [2] 0.029 | [3] 0.078 | [4] 0.007 | [5] -0.018 | [6] -0.043 | [7] -0.047 | [8] -0.034 | [9] -0.007 | [10] 0.017

CIAO3 (UniProt Q9H6Q4)
inactive: [1] -0.017 | [2] 0.07 | [3] -0.013 | [4] 0.048 | [5] 0.023 | [6] -0.037 | [7] -0.006 | [8] 0.012 | [9] -0.028 | [10] 0.014

2 records picked at random from those above:
CISD1 (UniProt Q9NZ45)
inactive: [1] 0.014 | [2] -0.022 | [3] -0.048 | [4] 0.02 | [5] -0.021 | [6] 0.031 | [7] -0.009 | [8] -0.01 | [9] -0.007 | [10] 0.005

CIAO3 (UniProt Q9H6Q4)
inactive: [1] -0.017 | [2] 0.07 | [3] -0.013 | [4] 0.048 | [5] 0.023 | [6] -0.037 | [7] -0.006 | [8] 0.012 | [9] -0.028 | [10] 0.014

The list goes on.

CHCHD3 (UniProt Q9NX63)
inactive: [1] 0 | [2] 0 | [3] -0.009 | [4] -0.014 | [5] 0.023 | [6] 0 | [7] 0.009 | [8] -0.018 | [9] 0.01 | [10] -0.001

CHD3 isoform 3 (UniProt Q12873)
inactive: [1] 0.036 | [2] -0.004 | [3] -0.033 | [4] -0.047 | [5] 0.032 | [6] 0.005 | [7] 0.014 | [8] 0.029 | [9] -0.002 | [10] 0.008

CLCN3 (UniProt P51790)
inactive: [1] 0.15 | [2] -0.043 | [3] -0.033 | [4] 0.117 | [5] 0.046 | [6] 0.056 | [7] -0.097 | [8] -0.064 | [9] -0.002 | [10] 0.071

CLEC16A isoform 2 (UniProt Q2KHT3)
inactive: [1] -0.499 | [2] 0.085 | [3] -0.079 | [4] 0.018 | [5] -0.054 | [6] -0.021 | [7] -0.365 | [8] -0.047 | [9] 0.054 | [10] -0.154

CLEC16A (UniProt Q2KHT3)
inactive: [1] 0.025 | [2] -0.015 | [3] 0.071 | [4] -0.017 | [5] 0.053 | [6] -0.029 | [7] -0.022 | [8] -0.012 | [9] 0.001 | [10] 0.001

CIAO2A (UniProt Q9H5X1)
inactive: [1] -0.018 | [2] 0.033 | [3] -0.037 | [4] -0.074 | [5] 0.011 | [6] 0.011 | [7] -0.067 | [8] -0.004 | [9] -0.027 | [10] -0.038

CKMT2 (UniProt P17540)
inactive: [1] 0.017 | [2] -0.017 | [3] 0.028 | [4] 0.027 | [5] -0.041 | [6] 0.003 | [7] 0.032 | [8] 0.073 | [9] 0 | [10] 0.062

CHCHD2 (UniProt Q9Y6H1)
inactive: [1] -0.102 | [2] 0.039 | [3] 0.016 | [4] -0.075 | [5] 0.031 | [6] -0.049 | [7] 0.058 | [8] -0.014 | [9] -0.029 | [10] 0.136

CLASP1 (UniProt Q7Z460)
inactive: [1] -0.015 | [2] 0.021 | [3] -0.097 | [4] 0.013 | [5] 0.016 | [6] -0.085 | [7] -0.051 | [8] -0.022 | [9] 0.012 | [10] -0.018

CHCHD4 isoform 2 (UniProt Q8N4Q1)
inactive: [1] -0.029 | [2] 0.023 | [3] -0.035 | [4] -0.031 | [5] -0.018 | [6] -0.156 | [7] 0.018 | [8] 0.032 | [9] -0.008 | [10] -0.028

CLIC2 (UniProt O15247)
inactive: [1] 0.029 | [2] -0.032 | [3] -0.017 | [4] 0.004 | [5] -0.022 | [6] -0.019 | [7] -0.024 | [8] 0.023 | [9] 0.004 | [10] -0.005

CHID1 (UniProt Q9BWS9)
inactive: [1] -0.024 | [2] 0.002 | [3] 0.013 | [4] -0.017 | [5] 0.023 | [6] 0.05 | [7] 0.053 | [8] -0.012 | [9] 0.009 | [10] -0.004

CHMP3 (UniProt Q9Y3E7)
inactive: [1] 0.003 | [2] -0.015 | [3] -0.019 | [4] 0.029 | [5] -0.017 | [6] -0.001 | [7] -0.069 | [8] -0.049 | [9] -0.024 | [10] -0.031

CHMP4C (UniProt Q96CF2)
inactive: [1] 0.05 | [2] -0.032 | [3] 0.028 | [4] -0.022 | [5] -0.002 | [6] -0.1 | [7] -0.011 | [8] -0.037 | [9] -0.019 | [10] -0.023

CMC1 (UniProt Q7Z7K0)
inactive: [1] -0.077 | [2] -0.059 | [3] 0.057 | [4] -0.107 | [5] -0.016 | [6] -0.038 | [7] 0.027 | [8] -0.027 | [9] 0.006 | [10] -0.027

CHD5 (UniProt Q8TDI0)
inactive: [1] -0.007 | [2] 0.021 | [3] 0.038 | [4] -0.022 | [5] 0.007 | [6] -0.082 | [7] 0.005 | [8] 0.02 | [9] -0.019 | [10] 0.01

CISD3 (UniProt P0C7P0)
inactive: [1] -0.052 | [2] 0.018 | [3] -0.003 | [4] 0.013 | [5] 0.009 | [6] 0.001 | [7] -0.016 | [8] 0.012 | [9] 0.062 | [10] 0.004

CIT isoform 4 (UniProt O14578)
inactive: [1] -0.015 | [2] -0.003 | [3] -0.074 | [4] -0.035 | [5] 0.01 | [6] -0.007 | [7] -0.003 | [8] 0.047 | [9] 0.015 | [10] 0

CHKB (UniProt Q9Y259)
inactive: [1] 0.018 | [2] -0.133 | [3] 0.067 | [4] 0.022 | [5] 0.01 | [6] -0.139 | [7] -0.064 | [8] 0.013 | [9] -0.012 | [10] -0.019

CKM (UniProt P06732)
inactive: [1] 0.033 | [2] 0 | [3] -0.056 | [4] 0.062 | [5] -0.093 | [6] -0.175 | [7] -0.072 | [8] 0.068 | [9] -0.025 | [10] 0.007
